According to patent publication US10064928B2, “Peptides and combination of peptides for use in immunotherapy against CLL and other cancers” (IMMATICS BIOTECHNOLOGIES GMBH, priority 2015, dated 2018):

Legend:
[1] = tested on: CLL samples compared to a panel of normal tissues; test: Identification and label-free relative LC-MS quantitation of HLA-presented peptides (presentation profiles and scores); design: species or system human; key: very highly over-presented on tumors compared to a panel of normal tissues (+++); highly over-presented on tumors compared to a panel of normal tissues (++); over-presented on tumors compared to a panel of normal tissues (+); details: presentation score; over-presentation on tumors (CLL samples) compared to a panel of normal tissues
[2] = tested on: other tumor types (e.g. non-Hodgkin lymphoma, lung cancer); test: Presentation of the peptides on additional tumor types (LC-MS, Tables 4A/4B, FIG. 1); design: species or system human; details: for Other relevant organs/diseases: Table 4A: additional tumor types where the peptide was over-presented on more than 5% of the measured tumor samples, or presented on more than 5% with ratio of geometric means tumor vs normal tissues larger than 3; for Additional Entities: Table 4B: additional tumour types with over-presentation (including specific presentation) on more than 5% of the measured tumour samples, or presentation on more than 5% with ratio of geometric means tumour vs normal tissues larger than 3, extended normal tissue panel

Substance | Peptide Presentation [1] | Other relevant organs/diseases [2] | Additional Entities [2]
131 (LQALEVLKI; listed as Homo sapiens) [compound 131] | +++ |  | 
169 (TLLLGLTEV; listed as Homo sapiens) [compound 169] | +++ | NHL, Melanoma | 
375 (VLWFKPVEL; listed as Homo sapiens) [compound 375] | ++ | NSCLC, HCC, NHL, Melanoma, Esophageal Cancer | BRCA, OC, Uterine Cancer, Gallbladder Cancer, Bile Duct Cancer, HNSCC
112 (KTLDVDATYEI; listed as Homo sapiens) [compound 112] | +++ | HCC, NHL, Melanoma, Esophageal Cancer, OC | Uterine Cancer
54 (FLYPFPLALF; listed as Homo sapiens) [compound 54] | +++ |  | 
140 (QIAELPATSV; listed as Homo sapiens) [compound 140] | +++ |  | 
345 (YLIEPDVELQRI; listed as Homo sapiens) [compound 345] | + |  | 
129 (LLVGTLDVV; listed as Homo sapiens) [compound 129] | + |  | 
277 (VMILKLPFL; listed as Homo sapiens) [compound 277] | + |  | 
65 (GLDDMKANL; listed as Homo sapiens) [compound 65] | +++ |  | 
144 (QLPPFPREL; listed as Homo sapiens) [compound 144] | +++ |  | 
36 (FILTHVDQL; listed as Homo sapiens) [compound 36] | +++ |  | 
6 (ALDTLEDDMTI; listed as Homo sapiens) [compound 6] | +++ |  | 
302 (ILQDLTFVHL; listed as Homo sapiens) [compound 302] | + |  | 
132 (LVYEAIIMV; listed as Homo sapiens) [compound 132] | +++ |  | 
4 (VIAELPPKVSV; listed as Homo sapiens) [compound 4] | +++ |  | 
372 (SLFGPLPGPGPALV; listed as Homo sapiens) [compound 372] | + |  | 
206 (HMQDVRVLL; listed as Homo sapiens) [compound 206] | +++ |  | 
259 (RLLDEQFAVL; listed as Homo sapiens) [compound 259] | + |  | 
50 (FLFEPVVKAFL; listed as Homo sapiens) [compound 50] | +++ |  | 
123 (LLLAEAELLTL; listed as Homo sapiens) [compound 123] | +++ |  | 
17 (ALTKTNLQL; listed as Homo sapiens) [compound 17] | +++ |  | 
331 (VLWELAHLPTL; listed as Homo sapiens) [compound 331] | +++ |  | 
23 (ALYLTEVFL; listed as Homo sapiens) [compound 23] | +++ |  | 
142 (QLDEPAPQV; listed as Homo sapiens) [compound 142] | +++ |  | 

Substance | Peptide Presentation [1] | Other relevant organs/diseases [2] | Additional Entities [2]
18 (LLGEFSIKM; listed as Homo sapiens) [compound 18] | +++ |  | 
61 (FVYFIVREV; listed as Homo sapiens) [compound 61] | +++ |  | 
77 (GLLRLTWFL; listed as Homo sapiens) [compound 77] | ++ |  | 
73 (GLLEVISALQL; listed as Homo sapiens) [compound 73] | +++ |  | 
318 (NLQVTQPTV; listed as Homo sapiens) [compound 318] | +++ |  | 
135 (MTAGFSTIAGSV; listed as Homo sapiens) [compound 135] | +++ |  | 
134 (MLLEHGITLV; listed as Homo sapiens) [compound 134] | +++ |  | 
171 (TLVPPAALISI; listed as Homo sapiens) [compound 171] | +++ |  | 
47 (FLSDQPEPYL; listed as Homo sapiens) [compound 47] | ++ |  | 
95 (ILGYMAHEHKV; listed as Homo sapiens) [compound 95] | +++ |  | 
182 (VLLSVPGPPV; listed as Homo sapiens) [compound 182] | +++ |  | 
53 (FLWQHVELVL; listed as Homo sapiens) [compound 53] | +++ |  | 
16 (ALPGGAAVAAV; listed as Homo sapiens) [compound 16] | ++ |  | 
356 (FLHDHQAEL; listed as Homo sapiens) [compound 356] | + |  | 
270 (TVLPVPPLSV; listed as Homo sapiens) [compound 270] | +++ |  | 
250 (LLVQEPDGLMV; listed as Homo sapiens) [compound 250] |  | SCLC, HCC, Melanoma, Urinary bladder cancer | 
306 (VVAEELENV; listed as Homo sapiens) [compound 306] |  | NHL, Melanoma, OC | RCC
303 (ILSQPTPSL; listed as Homo sapiens) [compound 303] |  | NHL, AML, Melanoma, OC | Uterine Cancer
239 (ILAGEMLSV; listed as Homo sapiens) [compound 239] |  | NHL, AML, Melanoma, Gallbladder Cancer, Bile Duct Cancer | SCLC, HCC
224 (AMEALVVEV; listed as Homo sapiens) [compound 224] |  | NHL | AML
348 (ALAKPPVVSV; listed as Homo sapiens) [compound 348] |  | SCLC, HCC, Melanoma, Esophageal Cancer | NSCLC, Urinary Bladder Cancer, NHL, HNSCC
252 (NLLDPGSSYLL; listed as Homo sapiens) [compound 252] |  | Esophageal Cancer | 
183 (VLMPTVYQQGV; listed as Homo sapiens) [compound 183] |  | AML | 
104 (KLILLDTPLFL; listed as Homo sapiens) [compound 104] | +++ |  | 
287 (FLWEEKFNSL; listed as Homo sapiens) [compound 287] | +++ |  | 
